Among the data in the supplement of paper PMC7024190 are log values, retold here.

SMILES strings stand for the structures. Counter-ions that a name gives are not always drawn. The list shows a part of the results. Repeats in this data set agree poorly, so a single value says little.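 The cells were human embryonic kidney cells carrying a Renilla luciferase gene, driven by the HSV-TK promoter, on a plasmid put in briefly by transfection. This is the first-round screen of about ten thousand compounds, looking for ones that raise reporter output.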

The subject of this test is HEK 293FT. Kind of test: log relative Renilla luciferase luminescence (reporter expression vs reference, reference not stated) (log (base not stated)); higher = higher recombinant reporter expression. To be noted: 10 µM; time after transfection 48 h.
As to `N#C/C(=C\c1ccc(O)c(O)c1)C(=O)NCCCCc1ccccc1`, the log is -0.309.

Consider `COc1cc(-c2ccc(=O)[nH]n2)ccc1OC(F)F` [Zardaverine], for which the log is -0.0609.

As to `COc1ccc(Cl)cc1C(=O)NCCc1ccc(S(=O)(=O)NC(=O)NC2CCCCC2)cc1` [Glibenclamide], the log is -8.27e-06.

With `CCCCCCC(=O)OC1CC(C)(C)NC(C)(C)C1` [TMPH hydrochloride], the log was -0.0154.

Regarding `Cc1ccc2c(c1)C(=O)C1(O)CCN(c3ccccc3)C1=N2` (racemic) [(±)-Blebbistatin], the log is -0.298.

`Cc1nc2sccn2c(=O)c1CCN1CCC(=C(c2ccccc2)c2ccc(F)cc2)CC1`: the log is -0.0231.

Take `OC[C@H]1NC[C@@H](O)[C@@H](O)[C@@H]1O` [1-Deoxymannojirimycin hydrochloride]: the log is -0.171.

Turning to `C[C@@H](CN1CCC(Cc2ccccc2)CC1)[C@@H](O)c1ccc(O)cc1` [Ro 25-6981 maleate], the log was 0.119.

In the case of `CC(C)Oc1ccc2c(=O)c3cc(C(=O)O)ccc3oc2c1`, the log was 0.0801.

`CC1(C)Oc2ccc(C#N)cc2[C@H](N2CCCC2=O)[C@H]1O` [Cromakalim]: the log came to 0.00743.

With `CCCCCCCC/C=C\CCCCCCCC(=O)NCc1ccc(O)c(OC)c1` [Olvanil], the log is -0.00758.

With `Cc1cc(C)c(/C=C2\C(=O)Nc3ccccc32)[nH]1`, the log amounted to 0.0616.

For `COc1ccccc1N1CCN(CCN2C(=O)c3ccccc3C(C)(C)C2=O)CC1` [ARC 239 dihydrochloride], the log was -0.0346.

As to `COc1ccc([C@@H]2Sc3ccccc3N(CCN(C)C)C(=O)[C@@H]2OC(C)=O)cc1` [Diltiazem hydrochloride], the log was -0.0109.

For the molecule `Cc1ccc(/C=N/NC(=O)c2ccccc2Oc2ccccc2)o1`, the log was determined as 0.0341.

In the case of `O=C1CCc2cc(OCCCCc3nnnn3C3CCCCC3)ccc2N1` [Cilostazol], the log amounted to 0.0286.

As for `CC(C)C(=O)c1c(C(C)C)nn2ccccc12` [Ibudilast], the log is -0.0145.

For `Oc1ccc(-c2nc3cc(O)cc(Br)c3o2)cc1`, the log was -0.00721.

Regarding `c1ccc(CN(CC2=NCCN2)c2ccccc2)cc1` [Antazoline hydrochloride], the log was -0.00432.

As to `Cc1cccc(C#Cc2ccccc2)n1` [MPEP hydrochloride], the log was 0.11.

Turning to `O=C(NCCCCN1CCN(c2cccc(Cl)c2Cl)CC1)c1ccc2c(c1)Cc1ccccc1-2`, the log was -0.0719.

Turning to `O=C1C=CC(=O)C2=C1C1c3ccccc3C2c2ccccc21`, the log was -0.0863.

Turning to `O=C(/C=C/c1c(C(=O)O)[nH]c2cc(Cl)cc(Cl)c12)Nc1ccccc1` [Gavestinel], the log was 0.0669.

Take `COc1cc(OC)c(NC(=O)Nc2cc(C)on2)cc1Cl`: the log is -0.0275.

As for `C[C@@H](N)[C@H]1CC[C@H](C(=O)Nc2ccncc2)CC1`, the log worked out at 0.027.

Consider `Cc1cc(I)ccc1Nc1c(C(=O)NOCC2CC2)cc(F)c(F)c1F`, for which the log was -0.0858.

Turning to `CCCCCCCCCCC[C@@H](C[C@@H]1OC(=O)[C@H]1CCCCCC)OC(=O)[C@H](CC(C)C)NC=O` [Orlistat], the log was -0.0949.

Take `COc1ccc(C(=O)Nc2sc3c(c2C(N)=O)CCCC3)cc1OC`: the log was -0.126.

With `NC(C(=O)O)c1cc(O)cc(O)c1` (racemic), the log amounted to 0.00213.

For the molecule `Cc1ccccc1C(=O)c1ccc(Nc2ccc(Br)cc2N)cc1Cl`, the log was -0.0596.

Take `CN/C(=N\CCSCc1nc[nH]c1C)NC#N` [Cimetidine]: the log was 0.0656.

Regarding `CCCCOC(=O)c1cc2c(cn1)[nH]c1ccccc12`, the log worked out at 0.023.

For `N#Cc1c(O)c2c(-c3ccc(-c4ccccc4O)cc3)csc2[nH]c1=O`, the log was -0.0488.

Turning to `CC(C)(C)NC[C@H](O)COc1nsnc1N1CCOCC1` [(S)-Timolol maleate], the log is -0.00216.

Consider `COc1cc(SC)ccc1C(=O)N1CCC(Cc2ccccc2)CC1`, for which the log was -0.051.

On to `O=C(Nc1ccccc1)N[C@@H]1C[C@@H](C(=O)O)Nc2cc(Cl)cc(Cl)c21`, for which the log was -0.0659.

As for `C[C@H](NC(=O)c1sccc1OCc1ccc(Cl)cc1)c1ccccc1`, the log is -0.0256.

Turning to `CC1CCN(CCCC(=O)c2ccc(F)cc2)CC1` [Melperone hydrochloride], the log is -0.00526.

As for `NC(=O)N1C(=O)/C(=C(\O)c2cccs2)c2cc(Cl)ccc21` [Tenidap], the log was 0.0285.
